The subject of the assay is BDF1 mice, P388 leukemia ip, median survival T/C. Nature of the assay: NCI In Vivo Anticancer Drug Screen. Data for tumor model P388 Leukemia (intraperitoneal) in B6D2F1 (BDF1) mice. The note with it: T/C endpoint: median survival time, higher T/C = longer survival. Summed up:
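Antitumour effect was judged in vivo: survival in drug-treated mice, normalised to that of vehicle-dosed controls, gives the reported T/C.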

The list shows only some results of the screen, not a fair sample: it is rich in T/C values a quarter to a half above the control, in often repeated tests (any T/C) and in doses without a T/C. Further doses and runs are listed elsewhere. T/C is the treated group as % of the vehicle group. Some doses have a count of surviving animals in place of a T/C: the source holds a T/C of zero for them, seemingly a mark for toxic or unscored doses. Some doses without a T/C left all or most animals alive at the check, yet need not have been tolerated: survival well below the control is almost never listed, so the zero probably covers shortened survival too. Survivors were counted at the toxicity check, usually on the fifth day, unless a day is given; later deaths do not show. Schedule codes are those of the source, read here as Q, the interval in days (D) or hours (H), X, the number of doses. Where survival is the endpoint, this PubChem deposit counts one and a half times the control or more as active, and values a quarter to a half above the control carry no call in these data; other NCI protocols may use other cut-offs. Some entries hold several experiments; the results are listed from low to high.

Regarding `ClCCN(CCCl)CCNc1ccnc2cc(Cl)ccc12`, the T/C is, setting by setting: (dose: 0.25 mg/kg/injection, schedule: Q01DX009 (ip), vehicle: saline) 125 and 136 % of control; (dose: 0.5 mg/kg/injection, schedule: Q01DX009 (ip), vehicle: saline) 130 % of control; (dose: 0.88 mg/kg/injection, schedule: Q01DX009 (ip), vehicle: saline) 141 % of control; (dose: 1.32 mg/kg/injection, schedule: Q01DX009 (ip), vehicle: saline) 141 % of control; (dose: 1.78 mg/kg/injection, schedule: Q04DX003 (ip), vehicle: saline) 127 % of control; (dose: 2.66 mg/kg/injection, schedule: Q04DX003 (ip), vehicle: saline) 145 % of control. The T/C (dose: 3.0 mg/kg/injection, schedule: Q01DX009 (ip), vehicle: saline) was 145 % of control. For the same compound, the survivor count was 5 of 6 (dose: 4.0 mg/kg/injection, schedule: Q04DX003 (ip), vehicle: saline); 0 of 6 (dose: 8.0 mg/kg/injection, schedule: Q04DX003 (ip), vehicle: saline); 2 of 6 (dose: 50.0 mg/kg/injection, schedule: Q04DX003 (ip), vehicle: saline).
As for `Cc1cc[n+](C)c2ccccc12`, the survivor count (dose: 37.5 mg/kg/injection, schedule: Q04DX003 (ip), vehicle: saline) is listed as 6 of 6.
For the compound `CC1OC(OC2CCCc3ccccc32)CC(N)C1O` (configuration not stated), the T/C (dose: 16.0 mg/kg/injection, schedule: Q01DX009 (ip), vehicle: water) was 126 % of control.

Source of the values: PubChem BioAssay AID328 (DTP/NCI, 2004).
